Measured values published in patent US20100069436A1, “IMIDAZOLE COMPOUNDS HAVING AN ANTIINFLAMMATORY EFFECT” (Merckle, priority 2006, published 2010).
Some of these results come from one statement about several compounds together. At least one structure is not confirmed: it was looked up by name or label, or the drawing left a doubt.

By UniProt entry, the sequences of proteins in these tests, tags left out.
UniProt Q16539, whole entry: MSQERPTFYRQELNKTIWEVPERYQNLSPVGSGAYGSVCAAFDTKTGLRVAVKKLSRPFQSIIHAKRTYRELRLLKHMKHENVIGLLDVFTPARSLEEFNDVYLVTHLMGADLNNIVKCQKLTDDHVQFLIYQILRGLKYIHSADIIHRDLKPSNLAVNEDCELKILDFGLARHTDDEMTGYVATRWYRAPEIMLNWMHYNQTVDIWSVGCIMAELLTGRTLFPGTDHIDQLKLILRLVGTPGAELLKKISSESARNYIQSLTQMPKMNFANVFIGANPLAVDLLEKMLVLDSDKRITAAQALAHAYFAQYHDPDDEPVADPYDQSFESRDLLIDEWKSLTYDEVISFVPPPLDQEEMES

Target: p38α MAP kinase (Homo sapiens, UniProt Q16539)
Experiment: Assay to determine the inhibition of p38α MAP kinase (phosphorylation of ATF-2, IC50-values)
Format: biochemical
Details: ATF-2 coated microtiter plates, 10 ng activated p38α, 100 μM ATP, 1 h at 37° C.; read-out: IC50, inhibition of the phosphorylation of ATF-2 by p38a MAP kinase
Description: Assay to determine the inhibition of p38α MAP kinase (IC50-values)
Microtiter plates were coated with the p38 MAP kinase substrate ATF-2 by incubating 50 μl of 20 μg/ml ATF-2 for one hour at 37° C. After the plates were washed three times with water, 50 μl of kinase mixture (=50 mM Tris-HCl, 10 mM MgCl2, 10 mM β-glycerol phosphate, 10 μg/ml BSA, 1 mM DTT, 100 μM ATP, 100 μM […], 10 ng activated p38α) without an with increasing inhibitor concentrations were added into the wells and incubated for one hour at 37° C. The plates were washed three times with water and incubated with an anti-phospho-ATF-2 antibody for one hour at 37°. Thereafter, the plates were again washed three times with water and incubated with a goat, alkaline phosphatase-labeled anti-rabbit IgG, for one hour at 37° C. The plates were washed and incubated with 100 μl of a solution containing the phosphatase substrate 4-nitrophenolphosphate (3 mM 4-NPP, 50 mM NaHCO3, 50 mM MgCl2) for 1.5 hours at 37° C. Formation of 4-nitrophenolate was measured at 405 nm using a microtiter plate reader. Based on the inhibitor-concentration/response curves, IC50-values were determined.

Structure (SMILES): CCN1CCCC1CNc1cc(-c2c(-c3ccc(F)cc3)nc([S+](C)[O-])n2CCOC)ccn1 (stereo not shown) [Example 8]
- IC50: > 10 µM
